# Reference: paper PMC6523098
# By UniProt entry, the sequences of proteins in these tests, tags left out. Where a name states a change or a piece, a line headed by the entry shows the natural chain unless it says otherwise. Chains listed by the source or under a name are the forms on record and can include a tag or linker.
# UniProt O22286: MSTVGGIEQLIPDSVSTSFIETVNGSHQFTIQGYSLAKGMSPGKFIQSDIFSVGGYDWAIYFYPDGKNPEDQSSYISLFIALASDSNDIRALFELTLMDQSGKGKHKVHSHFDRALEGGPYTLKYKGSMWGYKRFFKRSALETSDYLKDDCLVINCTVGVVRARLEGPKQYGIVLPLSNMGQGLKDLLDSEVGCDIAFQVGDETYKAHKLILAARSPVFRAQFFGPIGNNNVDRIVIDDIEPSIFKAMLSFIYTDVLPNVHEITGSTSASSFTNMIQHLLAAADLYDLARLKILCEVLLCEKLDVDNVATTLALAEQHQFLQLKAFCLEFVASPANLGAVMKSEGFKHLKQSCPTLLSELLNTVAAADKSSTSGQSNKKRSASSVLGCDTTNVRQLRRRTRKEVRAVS
# UniProt Q8H1E4: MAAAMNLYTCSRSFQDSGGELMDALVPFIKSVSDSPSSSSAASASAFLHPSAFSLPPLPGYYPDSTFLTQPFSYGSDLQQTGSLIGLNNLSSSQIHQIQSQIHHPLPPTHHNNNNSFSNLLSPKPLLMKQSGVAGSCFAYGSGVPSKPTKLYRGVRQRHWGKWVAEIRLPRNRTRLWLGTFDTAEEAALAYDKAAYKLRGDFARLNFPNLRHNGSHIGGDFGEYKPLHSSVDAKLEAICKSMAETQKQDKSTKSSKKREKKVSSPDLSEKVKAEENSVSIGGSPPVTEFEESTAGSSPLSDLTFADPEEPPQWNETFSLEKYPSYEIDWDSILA
# AtRAP2.4 with the SBC motif deleted (Q8H1E4, form named): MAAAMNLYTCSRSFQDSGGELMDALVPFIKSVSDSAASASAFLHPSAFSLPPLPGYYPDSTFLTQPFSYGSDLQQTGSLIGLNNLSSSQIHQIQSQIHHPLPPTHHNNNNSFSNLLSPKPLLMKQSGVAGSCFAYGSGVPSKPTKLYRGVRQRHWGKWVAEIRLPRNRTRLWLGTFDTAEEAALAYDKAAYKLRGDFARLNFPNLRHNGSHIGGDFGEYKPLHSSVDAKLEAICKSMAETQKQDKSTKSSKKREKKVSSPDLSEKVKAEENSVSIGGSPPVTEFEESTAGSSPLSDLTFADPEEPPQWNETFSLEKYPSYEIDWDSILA
# No constants are given. Whether binding was seen depends on the method and setting. Some entries that bind do so weakly or less than the wild type.
# Biological target: His:AtBPM3 (Arabidopsis thaliana) (UniProt O22286)
# Experiment: pull-down; recombinant GST:RAP2.4 proteins and His:AtBPM3, which of them was on beads is not stated for these panels; blots quantified, full length set to 100%; both purified
row,binding,Substance
1,binds,AtRAP2.4 with the SBC motif deleted (from UniProt Q8H1E4 1-334)
2,binds,GST:AtRAP2.4 (from UniProt Q8H1E4 1-334)
